Source: PubChem BioAssay (Tox21)
“And” between values parts separate entries of the source, which are not always exact repeats. Equal values may be shown once. The shares of active, inactive and inconclusive entries below differ from those in the screen. Potencies beside an inconclusive call are fits to weak or partial responses and may not hold up. A structure can be active in one record and inactive in another. The source made the active and inactive calls. Calls come from the whole dose curve; as a rule, active = well fitted curve in the direction sought with a large enough effect in the repeat runs; inconclusive = weak or mixed curves; inactive = no such curve, though single readings can be large; an effect the other way counts as inactive or inconclusive.

The chains behind the UniProt entries cited, without tags or fusion partners. Where a name states a change or a piece, a line headed by the entry shows the natural chain unless it says otherwise.
UniProt O75469: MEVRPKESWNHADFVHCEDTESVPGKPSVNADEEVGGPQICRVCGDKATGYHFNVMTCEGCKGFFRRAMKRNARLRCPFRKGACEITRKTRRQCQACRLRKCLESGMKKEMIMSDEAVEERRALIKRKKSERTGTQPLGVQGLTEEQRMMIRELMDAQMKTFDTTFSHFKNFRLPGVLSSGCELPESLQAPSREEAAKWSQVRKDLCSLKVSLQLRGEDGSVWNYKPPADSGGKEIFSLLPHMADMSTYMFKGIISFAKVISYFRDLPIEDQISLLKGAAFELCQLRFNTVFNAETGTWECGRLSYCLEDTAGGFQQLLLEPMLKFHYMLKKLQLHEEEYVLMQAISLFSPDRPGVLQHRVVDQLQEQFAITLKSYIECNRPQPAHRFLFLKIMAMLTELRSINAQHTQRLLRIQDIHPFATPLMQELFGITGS
UniProt P33261, whole entry, looked up: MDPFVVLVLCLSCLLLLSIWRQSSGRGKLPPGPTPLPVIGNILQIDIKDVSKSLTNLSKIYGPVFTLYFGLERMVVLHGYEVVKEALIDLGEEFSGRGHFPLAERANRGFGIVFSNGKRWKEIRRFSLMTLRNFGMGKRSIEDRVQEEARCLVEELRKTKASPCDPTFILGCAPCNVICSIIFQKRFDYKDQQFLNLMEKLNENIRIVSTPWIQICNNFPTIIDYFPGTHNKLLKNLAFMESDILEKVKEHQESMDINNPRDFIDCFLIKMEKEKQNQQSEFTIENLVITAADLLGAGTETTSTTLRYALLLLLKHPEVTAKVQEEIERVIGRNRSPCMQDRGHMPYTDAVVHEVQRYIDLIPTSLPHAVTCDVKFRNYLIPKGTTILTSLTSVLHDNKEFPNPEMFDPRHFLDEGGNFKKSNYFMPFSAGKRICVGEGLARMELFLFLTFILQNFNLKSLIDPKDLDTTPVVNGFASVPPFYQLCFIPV
UniProt P11712, whole entry, looked up: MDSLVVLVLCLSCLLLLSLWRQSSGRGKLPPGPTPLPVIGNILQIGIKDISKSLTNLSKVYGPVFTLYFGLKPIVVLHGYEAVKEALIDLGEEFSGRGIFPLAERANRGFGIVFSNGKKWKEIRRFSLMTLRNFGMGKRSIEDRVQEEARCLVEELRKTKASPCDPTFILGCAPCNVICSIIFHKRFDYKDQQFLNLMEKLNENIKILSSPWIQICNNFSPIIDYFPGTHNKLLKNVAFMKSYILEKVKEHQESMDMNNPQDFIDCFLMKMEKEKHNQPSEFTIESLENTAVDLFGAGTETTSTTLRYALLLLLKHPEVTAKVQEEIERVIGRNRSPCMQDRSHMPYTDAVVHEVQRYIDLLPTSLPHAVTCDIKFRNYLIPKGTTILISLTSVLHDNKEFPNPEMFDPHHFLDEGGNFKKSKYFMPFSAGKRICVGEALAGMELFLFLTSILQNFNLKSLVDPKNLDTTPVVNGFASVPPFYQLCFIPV
UniProt P10635, whole entry, looked up: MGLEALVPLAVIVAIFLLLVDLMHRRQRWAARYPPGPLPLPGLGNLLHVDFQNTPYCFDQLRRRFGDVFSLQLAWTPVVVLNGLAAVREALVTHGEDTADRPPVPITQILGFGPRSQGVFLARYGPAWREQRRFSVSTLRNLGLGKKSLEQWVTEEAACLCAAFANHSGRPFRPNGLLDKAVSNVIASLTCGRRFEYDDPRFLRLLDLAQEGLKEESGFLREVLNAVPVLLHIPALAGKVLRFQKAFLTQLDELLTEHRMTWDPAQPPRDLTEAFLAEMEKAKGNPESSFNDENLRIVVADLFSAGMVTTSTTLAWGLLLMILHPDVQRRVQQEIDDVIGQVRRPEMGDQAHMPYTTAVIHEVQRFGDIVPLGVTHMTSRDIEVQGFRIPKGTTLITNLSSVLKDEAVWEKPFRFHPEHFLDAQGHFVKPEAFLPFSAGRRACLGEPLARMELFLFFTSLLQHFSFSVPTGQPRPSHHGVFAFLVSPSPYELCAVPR
UniProt P08684, whole entry, looked up: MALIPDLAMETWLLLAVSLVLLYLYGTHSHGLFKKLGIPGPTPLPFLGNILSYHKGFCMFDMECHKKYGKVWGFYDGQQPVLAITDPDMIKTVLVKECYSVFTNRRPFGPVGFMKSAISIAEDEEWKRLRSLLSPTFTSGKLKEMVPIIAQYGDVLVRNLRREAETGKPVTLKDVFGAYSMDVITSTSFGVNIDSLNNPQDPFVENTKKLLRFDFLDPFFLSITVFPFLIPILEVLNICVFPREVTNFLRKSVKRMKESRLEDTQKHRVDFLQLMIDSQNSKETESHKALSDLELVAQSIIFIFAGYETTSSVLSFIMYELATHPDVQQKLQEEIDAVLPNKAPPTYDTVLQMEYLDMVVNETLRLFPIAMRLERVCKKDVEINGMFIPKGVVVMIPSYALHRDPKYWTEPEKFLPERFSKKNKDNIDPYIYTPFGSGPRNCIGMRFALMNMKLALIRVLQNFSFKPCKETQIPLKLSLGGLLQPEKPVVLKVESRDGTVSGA
UniProt P05177, whole entry, looked up: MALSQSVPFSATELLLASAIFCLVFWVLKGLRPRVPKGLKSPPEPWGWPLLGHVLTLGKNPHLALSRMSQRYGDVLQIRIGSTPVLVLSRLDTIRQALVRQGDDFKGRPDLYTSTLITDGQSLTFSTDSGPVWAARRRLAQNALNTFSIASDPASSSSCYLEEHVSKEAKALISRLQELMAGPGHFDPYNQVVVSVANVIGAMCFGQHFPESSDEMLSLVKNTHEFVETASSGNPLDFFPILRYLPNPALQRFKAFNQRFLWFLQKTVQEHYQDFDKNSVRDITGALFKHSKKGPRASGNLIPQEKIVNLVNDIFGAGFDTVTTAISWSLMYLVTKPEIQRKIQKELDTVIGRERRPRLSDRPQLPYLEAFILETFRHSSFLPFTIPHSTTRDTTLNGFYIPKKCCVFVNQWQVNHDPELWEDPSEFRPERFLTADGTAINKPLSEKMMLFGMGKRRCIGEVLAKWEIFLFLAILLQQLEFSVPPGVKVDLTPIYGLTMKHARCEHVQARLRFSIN
UniProt Q12809: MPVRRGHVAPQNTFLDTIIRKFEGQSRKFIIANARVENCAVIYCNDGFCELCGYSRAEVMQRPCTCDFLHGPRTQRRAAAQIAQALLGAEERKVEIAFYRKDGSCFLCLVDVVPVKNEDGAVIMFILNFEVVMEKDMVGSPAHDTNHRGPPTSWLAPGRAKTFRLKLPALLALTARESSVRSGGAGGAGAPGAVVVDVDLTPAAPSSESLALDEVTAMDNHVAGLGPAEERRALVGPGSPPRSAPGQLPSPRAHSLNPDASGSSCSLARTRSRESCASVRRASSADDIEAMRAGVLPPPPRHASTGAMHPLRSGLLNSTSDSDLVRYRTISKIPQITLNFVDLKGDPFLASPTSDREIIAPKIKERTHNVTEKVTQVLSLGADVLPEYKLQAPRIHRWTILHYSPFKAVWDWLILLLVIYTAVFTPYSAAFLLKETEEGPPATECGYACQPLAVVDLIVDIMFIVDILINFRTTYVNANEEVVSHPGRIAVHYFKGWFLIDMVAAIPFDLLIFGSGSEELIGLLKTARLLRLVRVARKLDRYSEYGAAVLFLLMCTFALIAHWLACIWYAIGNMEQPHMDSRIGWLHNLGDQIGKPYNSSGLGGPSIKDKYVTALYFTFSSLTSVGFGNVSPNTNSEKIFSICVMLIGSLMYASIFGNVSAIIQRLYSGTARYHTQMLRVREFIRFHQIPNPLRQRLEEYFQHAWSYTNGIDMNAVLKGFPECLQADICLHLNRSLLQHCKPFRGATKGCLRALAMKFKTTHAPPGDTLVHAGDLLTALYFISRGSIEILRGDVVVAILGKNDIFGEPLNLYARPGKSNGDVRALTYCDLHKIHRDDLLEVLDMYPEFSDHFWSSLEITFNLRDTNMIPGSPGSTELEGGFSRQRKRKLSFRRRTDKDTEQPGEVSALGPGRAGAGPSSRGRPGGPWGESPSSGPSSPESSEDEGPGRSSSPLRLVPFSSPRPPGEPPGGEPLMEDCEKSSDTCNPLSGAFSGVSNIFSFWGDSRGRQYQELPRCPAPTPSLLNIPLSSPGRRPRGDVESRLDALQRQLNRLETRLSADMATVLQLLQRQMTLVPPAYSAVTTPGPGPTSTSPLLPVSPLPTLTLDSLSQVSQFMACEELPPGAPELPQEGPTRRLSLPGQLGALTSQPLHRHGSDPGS

Assays:
[1] = molecular target: Nuclear receptor subfamily 1 group I member 2 (Homo sapiens) (UniProt O75469); assay: Human pregnane X receptor (PXR) small molecule agonists, qHTS assay (AID 1346982); note: nearly all actives have a fitted effect of over 35% in size; for activation: % is set by controls: 0 for no effect and ±100 for the full control effect
In short: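 PXR-Luc HepG2 cells (CYP3A4 promoter-driven luciferase) were seeded in medium with 5% charcoal-stripped FBS, left 5 hr at 37 C, then exposed to compounds in DMSO for 24 hr. Luminescence was read after ONE-Glo addition.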

[2] = molecular target: Cytochrome P450 2C19 (Homo sapiens) (UniProt P33261); assay: Cytochrome P450 Family 2 Subfamily C Member 19 (CYP2C19) small molecule antagonists: luciferase reporter qHTS assay (AID 1671197); note: nearly all actives have a fitted effect of over 65% in size; for activity change, negative = inhibition: series mostly up to about 120 µM; % is set by controls: 0 for no effect and ±100 for the full control effect
In short: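 Compounds were tested on CYP2C19 activity via proluciferin conversion to luciferin. The 37C, 1 h reaction followed NADPH addition; detection reagent stopped it.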

[3] = molecular target: Cytochrome P450 2C9 (Homo sapiens) (UniProt P11712); assay: Cytochrome P450 Family 2 Subfamily C Member 9 (CYP2C9) small molecule antagonists: luciferase reporter qHTS assay (AID 1671198); note: nearly all actives have a fitted effect of over 50% in size; for activity change, negative = inhibition: series mostly up to about 120 µM; % is set by controls: 0 for no effect and ±100 for the full control effect
In short: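 P450-Glo proluciferin substrate with CYP2C9 enzyme; 10 min RT preincubation, then NADPH regeneration 1 h at 37C; luciferin detection reagent 20 min RT, luminescence in relative luminescence units.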

[4] = molecular target: Cytochrome P450 2D6 (Homo sapiens) (UniProt P10635); assay: Cytochrome P450 Family 2 Subfamily D Member 6 (CYP2D6) small molecule antagonists: luciferase reporter qHTS assay (AID 1671196); note: nearly all actives have a fitted effect of over 50% in size; for activity change, negative = inhibition: series mostly up to about 120 µM; % is set by controls: 0 for no effect and ±100 for the full control effect
In short: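 CYP2D6 enzyme–substrate mix was held with compound for 10 min at room temperature, then NADPH regeneration solution was added and the reaction ran 1 h at room temperature. Luciferin product was detected by luminescence after 20 min with detection reagent.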

[5] = molecular target: Cytochrome P450 3A4 (Homo sapiens) (UniProt P08684); assay: Cytochrome P450 Family 3 Subfamily A Member 4 (CYP3A4) small molecule antagonists: luciferase reporter qHTS assay (AID 1671201); note: nearly all actives have a fitted effect of over 50% in size
In short: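 qHTS, 1536-well. CYP3A4 + proluciferin substrate, cpd 10 min RT → NADPH regen 1 h RT → detection reagent 20 min → luminescence (RLU). Ketoconazole positive control.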

[6] = molecular target: Cytochrome P450 1A2 (Homo sapiens) (UniProt P05177); assay: Cytochrome P450 Family 1 Subfamily A Member 2 (CYP1A2) small molecule antagonists: luciferase reporter qHTS assay (AID 1671199); note: nearly all actives have a fitted effect of over 50% in size
In short: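 Human CYP1A2 activity measured with a P450-Glo proluciferin substrate; compounds in DMSO preincubated 10 min at room temperature with enzyme-substrate mix, then NADPH regeneration system added for 1 h. Luciferin detection reagent, 20 min, luminescence read.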

[7] = molecular target: Voltage-gated inwardly rectifying potassium channel KCNH2 (Homo sapiens) (UniProt Q12809); assay: Human Ether-a-go-go-Related Gene (hERG) channel small molecule antagonists: fluorescence cell-based qHTS assay (AID 1671200); note: nearly all actives have a fitted effect of over 50% in size
In short: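 Fluorescence at 540 nm emission (480 nm excitation) was recorded kinetically for 2 min at 1-second intervals once the thallium-containing stimulus reached cells previously loaded with FluxOR II dye.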
Potency is the fitted concentration of half-maximal effect.

OCCc1ccncc1
Potency [1]: inactive
Potency [2]: inconclusive: 79.6 µM [inhibitor, single point]
Potency [3]: inconclusive: 31.7 µM [inhibitor, partial curve]

CCN(CC)CC(=O)OCC(=O)[C@@]1(O)CC[C@H]2[C@@H]3CCC4=CC(=O)CC[C@]4(C)[C@H]3[C@@H](O)C[C@@]21C
Potency [1]: inconclusive: 0.0596 µM [activator, single point]
Potency [2]: inactive

CCCCC(CC)COC(=O)CS (stereo not drawn)
Potency [1]: inconclusive: 69.4 µM [activator, single point]
Potency [4]: active: 28.6 µM and inconclusive: 35.6 µM [inhibitor, partial curve]
Potency [3]: active: 64.1 µM and active: 71 µM
Potency [5]: active: 40.4 µM and inconclusive: 22.4 µM [inhibitor, full curve]

CC(C)CC(=O)CC(C)CC(C)C (stereo not drawn)
Potency [1]: inactive
Potency [3]: inconclusive: 70.6 µM [inhibitor, partial curve, poor fit]

C=C(C)C(=O)OCCO
Potency [1]: inconclusive: 62.7 µM [activator, partial curve]
Potency [2]: inconclusive: 81.7 µM [inhibitor, partial curve, poor fit]

CC1=CC(C)(C)Nc2ccccc21
Potency [1]: inconclusive: 25.9 µM [activator, partial curve]
Potency [4]: inconclusive: 30.9 µM [inhibitor, partial curve]
Potency [2]: inconclusive: 2.45 µM [inhibitor, full curve, poor fit]
Potency [3]: inconclusive: 37.9 µM [inhibitor, partial curve]
Potency [6]: inconclusive: 37.9 µM [inhibitor, partial curve]
Potency [5]: inconclusive: 33.8 µM [inhibitor, partial curve]

CCCCCOC(C)=O
Potency [1]: inactive
Potency [4]: inconclusive: 36 µM [inhibitor, partial curve]
Potency [3]: inconclusive: 71.8 µM [inhibitor, partial curve] and active: 10 µM

Cn1cccc1
Potency [1]: inactive
Potency [4]: inconclusive: 8.94 µM [inhibitor, partial curve, poor fit]

Cc1noc(NS(=O)(=O)c2ccc(N)cc2)c1C
Potency [1]: inconclusive: 27.3 µM [activator, partial curve] and inactive
Potency [4]: inactive and inconclusive: 43.6 µM [inhibitor, single point]
Potency [3]: inconclusive: 63.2 µM [inhibitor, partial curve] and inactive

CC(C)(O)CCCC1=CCC(C=O)CC1 (stereo not drawn)
Potency [1]: inconclusive: 65.2 µM [activator, partial curve, poor fit]
Potency [4]: inconclusive: 75.8 µM [inhibitor, partial curve]
Potency [6]: active: 38 µM

NCc1ccccc1
Potency [1]: inactive
Potency [4]: active: 31.7 µM
Potency [3]: inactive

CCOC(=O)CC(=O)C(=O)OCC
Potency [1]: inconclusive: 61.1 µM [activator, single point]
Potency [3]: active: 39.9 µM

O=[N+]([O-])c1ccc(/C=N\O)o1
Potency [1]: inconclusive: 33.5 µM [activator, single point]
Potency [3]: inactive

CCCCCCCCCCCCCC(=O)O
Potency [1]: inconclusive: 27.3 µM [activator, partial curve]
Potency [4]: inactive
Potency [3]: inconclusive: 35.6 µM [inhibitor, full curve, poor fit]
Potency [6]: inactive and active: 71 µM

CCCCCC(=O)O
Potency [1]: inactive
Potency [3]: inconclusive: 89.5 µM [inhibitor, partial curve, poor fit] and inactive

CC(=O)Nc1ccc(N)cc1
Potency [1]: inconclusive: 55.3 µM [activator, partial curve, poor fit]
Potency [4]: active: 40.5 µM
Potency [3]: inconclusive: 40.5 µM [inhibitor, partial curve]

OCC(CBr)(CBr)CBr
Potency [1]: inconclusive: 30.5 µM [activator, partial curve]
Potency [3]: inconclusive: 39.8 µM [inhibitor, partial curve, poor fit]

COC(=O)C1CC(=O)C(C(=O)OC)CC1=O (stereo not drawn)
activation [1]: inactive: 2.25% [at 8.39 µM]
Potency [2]: inconclusive: 3.92 µM [inhibitor, single point]
Potency [6]: inconclusive: 3.11 µM [inhibitor, partial curve]

COC(=O)c1ccc(C)cc1C1=NC(C)(C(C)C)C(=O)N1 (stereo not drawn)
Potency [1]: inconclusive: 43.3 µM [activator, partial curve, poor fit]
Potency [2]: inactive
Potency [5]: inconclusive: 31.7 µM [inhibitor, partial curve]

CCCCC1C(=O)N(c2ccccc2)N(c2ccccc2)C1=O
Potency [1]: inconclusive: 21.1 µM [activator, partial curve, poor fit]
Potency [4]: inconclusive: 17.8 µM [inhibitor, partial curve]
Potency [2]: inconclusive: 11 µM [inhibitor]
Potency [6]: inconclusive: 31.5 µM [inhibitor, partial curve]

O=C1CCC(C2CCCCC2)CC1
Potency [1]: inconclusive: 61.1 µM [activator]
Potency [2]: inconclusive: 89.4 µM [inhibitor, single point]
Potency [3]: inconclusive: 79.6 µM [inhibitor]
Potency [6]: inconclusive: 39.9 µM [inhibitor, partial curve]
Potency [5]: inconclusive: 71 µM [inhibitor, partial curve]

CC1(C)[C@@H]2CC[C@]3(C2)[C@@H]1C(=O)CCC3(C)C
Potency [1]: active: 9.69 µM
Potency [3]: inconclusive: 56.4 µM [inhibitor, partial curve]

O=C(O)CCCC[P+](c1ccccc1)(c1ccccc1)c1ccccc1
Potency [1]: inactive
Potency [4]: inconclusive: 43.6 µM [inhibitor, single point]

NC(=S)Nc1cccc2ccccc12
activation [1]: inactive: -0.9% [at 8.39 µM]
Potency [4]: active: 2.01 µM
activity change, negative = inhibition [6]: inactive: -26.4% [at 10.5 µM]

CC1CCN(CCCC(=O)c2ccc(F)cc2)CC1
Potency [1]: inactive
Potency [4]: active: 0.246 µM
Potency [6]: inactive
Potency [7]: inconclusive: 10.7 µM [inhibitor, partial curve]

C[C@H]1C[C@H]2[C@@H]3CCC4=CC(=O)C=C[C@]4(C)[C@H]3C(=O)C[C@]2(C)[C@@]1(O)C(=O)CO
Potency [1]: inconclusive: 5.31 µM [activator, partial curve, poor fit]
Potency [4]: inconclusive: 43.6 µM [inhibitor, single point]
Potency [2]: inactive
Potency [5]: inactive

CC(=O)OC(C)(C)C1CC=C(C)CC1 (stereo not drawn)
Potency [1]: inactive
Potency [4]: inactive and inconclusive: 39.9 µM [inhibitor, partial curve]
Potency [2]: inconclusive: 78.1 µM [inhibitor, single point]
Potency [3]: inconclusive: 78.1 µM [inhibitor, partial curve, poor fit]
Potency [6]: inconclusive: 50.2 µM [inhibitor, partial curve]
Potency [5]: active: 31.7 µM

CN1C(=O)CC(C)(c2ccccc2)C1=O (stereo not drawn)
Potency [1]: inactive
Potency [4]: inconclusive: 43.6 µM [inhibitor, single point]
Potency [3]: inactive
Potency [6]: inactive

CC(Cl)C(Cl)Cl (stereo not drawn)
Potency [1]: inactive
Potency [4]: inconclusive: 62.3 µM [inhibitor, partial curve]
Potency [3]: inconclusive: 35 µM [inhibitor, partial curve]
Potency [6]: inconclusive: 39.3 µM [inhibitor, partial curve]

CN1C(=O)c2ccc([N+](=O)[O-])cc2C1=O
Potency [1]: inconclusive: 61.1 µM [activator, partial curve, poor fit]
Potency [4]: inconclusive: 63.2 µM [inhibitor, partial curve]
Potency [3]: inconclusive: 39.9 µM [inhibitor, partial curve, poor fit]
Potency [6]: active: 20 µM

Cc1ccc(Cl)c(OCC(O)CNC(C)(C)C)c1 (stereo not drawn)
Potency [1]: inconclusive: 33.5 µM [activator]
Potency [4]: active: 1.1 µM
Potency [7]: inconclusive: 16.9 µM [inhibitor, partial curve]

CCOC(=O)C(C)Oc1ccc(Oc2nc3ccc(Cl)cc3o2)cc1 (stereo not drawn)
Potency [1]: inconclusive: 68.6 µM [activator]
Potency [4]: inconclusive: 71 µM [inhibitor, partial curve]
Potency [7]: active: 34.7 µM

COCN(COC)c1nc(N(COC)COC)nc(N(COC)COC)n1
Potency [1]: inconclusive: 61.5 µM [activator, partial curve, poor fit]
Potency [2]: inconclusive: 35.8 µM [inhibitor, partial curve, poor fit] and inconclusive: 71 µM [inhibitor, single point]
Potency [3]: inconclusive: 40.2 µM [inhibitor, partial curve] and inconclusive: 71 µM [inhibitor, partial curve, poor fit]
Potency [6]: inconclusive: 71.4 µM [inhibitor, partial curve, poor fit] and inactive
Potency [5]: inconclusive: 63.7 µM [inhibitor, partial curve, poor fit]

C[N+](C)(C)CCOC(N)=O
Potency [1]: inactive
Potency [2]: inactive

NCCCN1CCOCC1
Potency [1]: inactive
Potency [4]: active: 35.5 µM
Potency [2]: inactive

OC[C@@H](O)C(O)[C@@H](O)CO (stereo partly drawn)
Potency [1]: inactive
Potency [3]: inconclusive: 57 µM [inhibitor, partial curve]
Potency [6]: inactive

C=CCNC(N)=S
Potency [1]: inconclusive: 37.7 µM [activator, partial curve]
Potency [3]: inconclusive: 55.1 µM [inhibitor, partial curve]
Potency [6]: inconclusive: 49.1 µM [inhibitor, partial curve] and inactive
